At least one compound was matched to its structure with a doubt left.
Tested on: C57BL/6 mice maintaining normal blood glucose levels
Experiment: Liraglutide absorption in sublingual mucosal tissue, improvement in glucose tolerance
Type: in vivo
Conditions: sublingual 10 μl with mixture of taurocholate and SEQ6, then 1 g/kg glucose i.p.; FIG. 9

For `CCCCCCCCCCCCCCCC(=O)N[C@@H](CCC(=O)NCCCC[C@H](NC(=O)[C@H](C)NC(=O)[C@H](C)NC(=O)[C@H](CCC(N)=O)NC(=O)CNC(=O)[C@H](CCC(=O)O)NC(=O)[C@H](CC(C)C)NC(=O)[C@H](Cc1ccc(O)cc1)NC(=O)[C@H](CO)NC(=O)[C@H](CO)NC(=O)[C@@H](NC(=O)[C@H](CC(=O)O)NC(=O)[C@H](CO)NC(=O)[C@@H](NC(=O)[C@H](Cc1ccccc1)NC(=O)[C@@H](NC(=O)CNC(=O)[C@H](CCC(=O)O)NC(=O)[C@H](C)NC(=O)[C@@H](N)Cc1cnc[nH]1)[C@@H](C)O)[C@@H](C)O)C(C)C)C(=O)N[C@@H](CCC(=O)O)C(=O)N[C@@H](Cc1ccccc1)C(=O)N[C@H](C(=O)N[C@@H](C)C(=O)N[C@@H](Cc1c[nH]c2ccccc12)C(=O)N[C@@H](CC(C)C)C(=O)N[C@H](C(=O)N[C@@H](CCCNC(=N)N)C(=O)NCC(=O)N[C@@H](CCCNC(=N)N)C(=O)NCC(=O)O)C(C)C)[C@@H](C)CC)C(=O)O` [liraglutide], the “glucose tolerance improvement effects of liraglutide” value was “excellent glucose tolerance improvement effects”.

From patent US20250205341A1, “PROTEIN DELIVERY COMPOSITION CONTAINING BILE SALT AND CATIONIC PEPTIDE AND USE THEREOF” (BION INC., priority 2022, published 2025)
